# Assay results as given in PubChem BioAssay AID1117319 (Southern Research Institute, 2015).
# The chains behind the UniProt entries cited, without tags or fusion partners. Where a name states a change or a piece, a line headed by the entry shows the natural chain unless it says otherwise.
# UniProt P69720: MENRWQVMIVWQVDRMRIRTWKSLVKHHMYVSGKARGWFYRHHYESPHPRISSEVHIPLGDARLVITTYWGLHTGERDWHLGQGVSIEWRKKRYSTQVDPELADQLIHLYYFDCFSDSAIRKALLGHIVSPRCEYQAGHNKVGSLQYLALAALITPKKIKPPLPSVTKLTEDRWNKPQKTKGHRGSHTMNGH
# UniProt P69721: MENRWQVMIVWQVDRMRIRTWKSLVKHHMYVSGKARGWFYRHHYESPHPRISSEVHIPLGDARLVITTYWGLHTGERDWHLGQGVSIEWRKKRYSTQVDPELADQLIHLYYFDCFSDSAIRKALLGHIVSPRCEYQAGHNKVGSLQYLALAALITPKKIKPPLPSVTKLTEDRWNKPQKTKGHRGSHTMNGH
# UniProt P69722: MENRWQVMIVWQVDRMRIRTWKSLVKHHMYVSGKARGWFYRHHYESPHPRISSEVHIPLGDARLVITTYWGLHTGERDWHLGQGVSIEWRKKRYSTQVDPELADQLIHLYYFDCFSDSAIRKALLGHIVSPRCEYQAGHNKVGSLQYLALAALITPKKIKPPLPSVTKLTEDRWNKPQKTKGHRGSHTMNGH
# UniProt P69723: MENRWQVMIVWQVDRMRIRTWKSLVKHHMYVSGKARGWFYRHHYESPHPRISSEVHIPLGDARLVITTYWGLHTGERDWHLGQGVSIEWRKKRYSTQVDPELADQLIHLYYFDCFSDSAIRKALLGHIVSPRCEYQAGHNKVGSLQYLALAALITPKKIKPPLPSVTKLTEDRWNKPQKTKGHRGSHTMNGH
# UniProt Q9HC16: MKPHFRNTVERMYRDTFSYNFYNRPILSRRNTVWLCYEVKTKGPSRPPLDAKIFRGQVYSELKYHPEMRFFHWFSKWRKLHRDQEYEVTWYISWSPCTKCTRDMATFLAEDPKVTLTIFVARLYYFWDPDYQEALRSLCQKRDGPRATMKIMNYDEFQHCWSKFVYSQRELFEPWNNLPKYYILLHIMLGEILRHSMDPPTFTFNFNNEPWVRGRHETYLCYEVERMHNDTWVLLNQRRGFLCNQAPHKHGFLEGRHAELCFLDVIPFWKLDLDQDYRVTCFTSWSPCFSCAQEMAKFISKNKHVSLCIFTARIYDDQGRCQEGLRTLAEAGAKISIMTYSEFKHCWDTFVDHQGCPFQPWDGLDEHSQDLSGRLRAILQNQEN
# About 1,500 (0.58%) of roughly 260,000 compounds were called active. Inconclusive results, whose numbers are uncertain, are shown with a selection of clear calls.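 How the source made its calls: active means inhibition above a set limit at one or more doses, reproduced on every date tested; inconclusive means results disagree between test dates, or hit never tested in dose response; inactive means the rest.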
# Target: Virion infectivity factor (Human immunodeficiency virus type 1 group M subtype B (isolate BH10)) + Virion infectivity factor (Human immunodeficiency virus type 1 group M subtype B (isolate BRU/LAI)) + Virion infectivity factor (Human immunodeficiency virus type 1 group M subtype B (isolate PCV12)) + Virion infectivity factor (Human immunodeficiency virus type 1 group M subtype B (isolate HXB2)) + DNA dC->dU-editing enzyme APOBEC-3G (Homo sapiens) (UniProt P69720+P69721+P69722+P69723+Q9HC16)
# Assay: inhibitors of Vif binding to APOBEC3G peptide, primary screen, biochemical, TR-FRET, GST-Vif 1-94, biotin-A3G peptide, dose response retest (AID 1117319);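 further: Vif residues 1-94 fused to GST binding biotinylated APOBEC3G peptide 110-148; 0% = full assay without inhibitor and 100% = GST in place of GST-Vif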
# Settings: stronger effect = higher value
row,Structure (SMILES),inhibition
1,N#CC1=C2N=C(N)c3c(sc4c3CCCCC4)N2C2=C(C(=O)CCC2)C1c1ccccc1 (configuration not stated),inconclusive: 49.6%
2,CC(SCc1ccccc1)C(=O)N/N=C/c1ccc2c(c1)OCO2 (configuration not stated),inconclusive: 53.1%
3,Cc1ccc2c(c1)c1c(n2CC(O)CN2CCCCC2C)CCCC1 (configuration not stated),inconclusive: 37%
4,c1coc(CN(Cc2cccs2)Cc2nnnn2C2CCCCC2)c1,inconclusive: 43.7%
5,O=C(O)c1cn(Cc2ccccc2)nc1-c1cccnc1,inconclusive: 34.1%
6,COc1ccc(-n2c(O)c(C=NCc3ccccn3)c3ccccc3c2=O)c(OC)c1,inconclusive: 33.5%
7,O=[n+]1c2c(n([O-])c3cc(F)ccc31)CCCC2,inactive: 11.7%
8,COc1ccc(C(O)c2coc3ccc(O)c(CN(C)C)c23)cc1 (configuration not stated),inconclusive: 35.8%
9,COCCCNC(=O)Nc1ccc2c(c1)N(C)C(=O)CS2,inconclusive: 51.5%
10,CN(C)C(CNc1ncnc2sc3c(c12)CCCC3)c1ccco1 (configuration not stated),inconclusive: 34.1%
11,Cc1cc(NC(=O)CCl)n(-c2nc3ccccc3s2)n1,inactive: -1.34%
12,CCOC(=O)c1sc(NC(=O)c2cccc(S(=O)(=O)N3CCc4ccccc43)c2)c(C#N)c1C,inconclusive: 47.7%
13,COc1cccc(NC(=S)N2CCN(C/C=C/c3ccccc3)CC2)c1,inconclusive: 37.4%
14,COC(=O)CNC(=O)Cn1c(=O)n(Cc2ccc(F)cc2)c(=O)c2sccc21,inconclusive: 56.8%
15,Cc1c(CCO)c(=O)n(C)n1C(=O)c1ccc(Cl)cc1,inconclusive: 36.5%
16,Cc1cc(/C=C2\SC(=S)N(Cc3ccco3)C2=O)c(C)n1-c1ccccc1,inactive: 3.57%
17,Nc1ncc(-c2ccccc2)n1CC1CCCO1 (configuration not stated),inconclusive: 9.81%
18,CCOC(=O)Cc1cc(=O)n2[nH]c(C(C)(C)C)cc2n1,inactive: 2.01%
19,O=S(=O)(NCc1ccccn1)c1ccc(F)cc1,inconclusive: 42.5%

row,Structure (SMILES),inhibition
1,COCCSc1nnc(NC(=O)COC)s1,inactive: -0.26%
2,CCCN1C/C(=C/c2cccc([N+](=O)[O-])c2)C(=O)/C(=C/c2cccc([N+](=O)[O-])c2)C1,inconclusive: 17.9%
3,NC(=S)n1[nH]c(-c2ccc([N+](=O)[O-])cc2)c(N=Nc2ccc(O)cc2)c1=O,inconclusive: 39.4%
4,CC(NCc1cccs1)C(=O)NC1CCCCC1 (configuration not stated),inconclusive: 37.9%
5,O=C(O)CCSCCCN1C(=O)c2cccc3cccc(c23)C1=O,inconclusive: 35.1%
6,COc1ccccc1-n1c(SCC(N)=O)nc2sc3c(c2c1=O)CCC3,inconclusive: 42.1%
7,CCOCC(=O)Nc1ccc(F)c(F)c1,inconclusive: 51.9%
8,CCc1ccc2[nH]c(=O)c(CN(CCCO)C(=O)NCc3ccccc3)cc2c1,inconclusive: 41.1%
9,Cc1c(C(=O)c2ccccc2)c2ccccn2c1CCc1ccccn1,inconclusive: 33%
10,CCOc1ccc(NC(c2ccccn2)c2oc(CO)cc(=O)c2O)cc1 (configuration not stated),inconclusive: 45%
11,CC(/C=C1\NC(=S)NC1=O)=C\c1ccccc1,inconclusive: 33%
12,Nc1ncc([N+](=O)[O-])c(Oc2ccccc2F)n1,inconclusive: 45.8%
13,CNC(=S)N1CCN(c2ccc(Cl)c(Cl)c2)CC1,inactive: 1.98%
14,CC(C)c1ccc(-c2nn(-c3ccccc3)cc2C2C(C#N)=C(N)OC3=C2C(=O)CC(C)(C)C3)cc1 (configuration not stated),inconclusive: 46.1%
15,CC1CN(C(c2cccs2)c2sc3ncnn3c2O)CC(C)O1 (configuration not stated),inactive: -3.12%
16,COc1ccc(C)cc1NC(=O)C1CCCN1S(=O)(=O)c1ccc2c(c1)CCC(=O)N2 (configuration not stated),inconclusive: 29.9%
17,COC(=O)C1C(O)=C(C(C)=Nc2cccc3ccccc23)C(=O)CC1(C)C (configuration not stated),inconclusive: 50.3%
18,O=[n+]1c2c(n([O-])c3c1CCCC3)CCCC2,inactive: 3.36%
19,O=C(Cn1c(CN2CCCCC2)nc2ccccc2c1=O)NCc1ccco1,inconclusive: 39.5%

# Four compounds from above, sorted by heavy-atom count, low to high.
row,Structure (SMILES),inhibition
17,Nc1ncc(-c2ccccc2)n1CC1CCCO1 (configuration not stated),inconclusive: 9.81%
18,CCOC(=O)Cc1cc(=O)n2[nH]c(C(C)(C)C)cc2n1,inactive: 2.01%
15,CC1CN(C(c2cccs2)c2sc3ncnn3c2O)CC(C)O1 (configuration not stated),inactive: -3.12%
13,COc1cccc(NC(=S)N2CCN(C/C=C/c3ccccc3)CC2)c1,inconclusive: 37.4%

# More compounds follow.

row,Structure (SMILES),inhibition
1,Cc1oc(-c2ccc(Cl)cc2)nc1CN1CCC(C(=O)NCCCN2CCOCC2)CC1,inconclusive: 46.3%
2,Cc1ccc(-n2cccc2/C=C2/C(=N)N3C(=NC2=O)SN=C3S(C)(=O)=O)cc1,inconclusive: 37.4%
3,Cn1cc(C(=O)Nc2ccc(F)c(Cl)c2)cn1,inconclusive: 36.2%
4,CCc1ccccc1NC(=O)c1cnccn1,inconclusive: 54.3%
5,CC(=O)N(c1ccccc1C)c1ccccc1C,inactive: -4.05%
6,O=C(CCC(=O)Nc1ccc(Cl)cc1Cl)N/N=C/c1ccc([N+](=O)[O-])o1,inconclusive: 38.5%
7,CC1CCCC(NC(=O)c2ccc3c(c2)N(Cc2ccccc2)C(=O)CS3=O)C1C (configuration not stated),inconclusive: 48.5%
8,O=C(Nc1cccc(C(=O)O)c1)Nc1ccccc1Cl,inconclusive: 60.8%
9,C=CCN1C(=O)C2(OCCCO2)c2cccc(C)c21,inconclusive: 36.2%
10,COCCN(CCOC)C(=O)c1c[nH]c2ccc(S(=O)(=O)N(C)c3ccc(F)cc3)cc2c1=O,inconclusive: 39.7%
11,COc1ccc(-c2nc3n(n2)C(=O)CC(c2ccco2)S3)cc1 (configuration not stated),inconclusive: 33.2%
12,Oc1cccc2ccc(N3CCOCC3)nc12,inactive: -8.55%
13,N#Cc1ccccc1Sc1ccccc1C(=O)Nc1ccc(Br)cc1,inactive: 5.46%
14,CN(Cc1ccccc1)C(=O)c1nc2ccccn2c1CNCCCOc1cccnc1,inconclusive: 37%
15,O=C(Nc1ccc2c(c1)OCCO2)C1CCN(S(=O)(=O)c2ccc3c(c2)OCCO3)CC1,inconclusive: 52.9%
16,CSCC[C@H](NC(=O)OC(C)(C)C)c1nnc(SCC(=O)Nc2ccc(C)cc2C)o1,inconclusive: 60.8%
17,COc1ccc(N2C(=O)C(=O)/C(=C(/O)c3ccc(C)cc3)C2c2cccnc2)cc1 (configuration not stated),inconclusive: 37.8%
18,COCc1ccc(C(=O)Nc2ccc(C(=O)O)cc2)o1,inconclusive: 38.9%
19,C[C@@H]1O[C@@H](Oc2c(-c3cc(O)c(O)c(O)c3)oc3cc(O)cc(O)c3c2=O)[C@H](O)[C@H](O)[C@H]1O,inconclusive: 64.8%
